Data as given in PubChem BioAssay AID652259 (Drosophila RNAi Screening Center, 2013).

Aim: 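Identify new Wingless signalling regulators in fly cells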 (primary screen)
Cell system: Drosophila clone 8 imaginal disc epithelial cells
Knock-down reagent: long dsRNA against Drosophila genes
Challenge: pathway stimulated by co-transfected Wingless expression plasmid
Measured: 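Dual luciferase reads per well after Wingless plasmid stimulation: reporter firefly light and Renilla control light; activity is firefly divided by Renilla, a ratio not deposited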
Scale: firefly reporter light: higher = more Wg reporter light, before normalisation; Renilla control light: higher = more transfected or surviving cells
Rule for the call: 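a knock-down is a candidate when at least two out of four statistical tests show it departing from its plate mean; one test alone signals a weak candidate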
Meaning of the calls: active = candidate regulator (raises or lowers reporter); inactive = not a candidate
The deposit covers about 22,000 reagents; shown is an unselected part of those that have a named target and a result. Of all reagents, 233 (1.1%) were called active. 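Light values are raw, unnormalised plate reads; the ratio scores behind the reporter calls were not deposited.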 A plus sign joins genes that one reagent is predicted to hit. Not given: the amount of reagent, the time to read-out, the dose of the treatment.

CG8910 [DRSC07414] — firefly reporter light, replicate 1: 4186; Renilla control light, replicate 1: 1664; Outcome: inactive
Cyp4d20 [DRSC08654] — firefly reporter light, replicate 1: 8726; Renilla control light, replicate 1: 2720; Outcome: inactive
CG11370 [DRSC11653] — firefly reporter light, replicate 1: 9974; Renilla control light, replicate 1: 2982; Outcome: inactive
CG33331 + CG33332 [DRSC22928] — firefly reporter light, replicate 1: 4.47e5; firefly reporter light, replicate 2: 4.28e5; Renilla control light, replicate 1: 1.70e5; Renilla control light, replicate 2: 1.42e5; Outcome: inactive
Gas41 [DRSC03156] — firefly reporter light, replicate 1: 8965; Renilla control light, replicate 1: 3109; Outcome: inactive
CG14618 [DRSC20631] — firefly reporter light, replicate 1: 21680; Renilla control light, replicate 1: 9217; Outcome: inactive
bun [DRSC01253] — firefly reporter light, replicate 1: 25418; Renilla control light, replicate 1: 10945; Outcome: inactive
bun [DRSC01255] — firefly reporter light, replicate 1: 25208; Renilla control light, replicate 1: 10008; Outcome: inactive
bun [DRSC03500] — reporter change call, replicate 1: Wg reporter activity raised; firefly reporter light, replicate 1: 13148; Renilla control light, replicate 1: 1169; Outcome: active
Mettl3 [DRSC15921] — firefly reporter light, replicate 1: 13296; Renilla control light, replicate 1: 13328; Outcome: inactive
ste24a [DRSC07314] — firefly reporter light, replicate 1: 10539; Renilla control light, replicate 1: 4168; Outcome: inactive
prt [DRSC16894] — firefly reporter light, replicate 1: 16978; Renilla control light, replicate 1: 8696; Outcome: inactive
CG15394 [DRSC00408] — firefly reporter light, replicate 1: 2497; firefly reporter light, replicate 2: 5133; Renilla control light, replicate 1: 938; Renilla control light, replicate 2: 1817; Outcome: inactive
CG10445 [DRSC14247] — firefly reporter light, replicate 1: 16640; Renilla control light, replicate 1: 4021; Outcome: inactive
Cp7Fb [DRSC18034] — firefly reporter light, replicate 1: 19200; Renilla control light, replicate 1: 8272; Outcome: inactive
CG42404 [DRSC15558] — firefly reporter light, replicate 1: 10856; Renilla control light, replicate 1: 4103; Outcome: inactive
Arl1 [DRSC09667] — firefly reporter light, replicate 1: 10906; Renilla control light, replicate 1: 4040; Outcome: inactive
